The test system of the data set is BDC-2.5 TCR. Particulars: p1-4 fused to WSRMDQ; baculovirus DNA from enriched virus of Fig. 1 C, panel 3.

With LLGS, the “freq (occurrence in sequencing data of BDC-2.5-enriched library)” value (shortened to “freq”) came out at 5120.

As to LTSL, the “freq” value came out at 13607.

Consider NVPV, for which the “freq” value worked out at 5616.

Take QRCI: the “freq” value stood at 2606.

Consider SVGV, for which the “freq” value is 2872.
